Our source for the binding values is patent publication US20100138941A1.

Sequences of proteins named here, by UniProt entry; tags and fusion partners are left off. A change or cut given only in a name is not applied to a line headed by its entry. Residues count along the entry.
UniProt P14625: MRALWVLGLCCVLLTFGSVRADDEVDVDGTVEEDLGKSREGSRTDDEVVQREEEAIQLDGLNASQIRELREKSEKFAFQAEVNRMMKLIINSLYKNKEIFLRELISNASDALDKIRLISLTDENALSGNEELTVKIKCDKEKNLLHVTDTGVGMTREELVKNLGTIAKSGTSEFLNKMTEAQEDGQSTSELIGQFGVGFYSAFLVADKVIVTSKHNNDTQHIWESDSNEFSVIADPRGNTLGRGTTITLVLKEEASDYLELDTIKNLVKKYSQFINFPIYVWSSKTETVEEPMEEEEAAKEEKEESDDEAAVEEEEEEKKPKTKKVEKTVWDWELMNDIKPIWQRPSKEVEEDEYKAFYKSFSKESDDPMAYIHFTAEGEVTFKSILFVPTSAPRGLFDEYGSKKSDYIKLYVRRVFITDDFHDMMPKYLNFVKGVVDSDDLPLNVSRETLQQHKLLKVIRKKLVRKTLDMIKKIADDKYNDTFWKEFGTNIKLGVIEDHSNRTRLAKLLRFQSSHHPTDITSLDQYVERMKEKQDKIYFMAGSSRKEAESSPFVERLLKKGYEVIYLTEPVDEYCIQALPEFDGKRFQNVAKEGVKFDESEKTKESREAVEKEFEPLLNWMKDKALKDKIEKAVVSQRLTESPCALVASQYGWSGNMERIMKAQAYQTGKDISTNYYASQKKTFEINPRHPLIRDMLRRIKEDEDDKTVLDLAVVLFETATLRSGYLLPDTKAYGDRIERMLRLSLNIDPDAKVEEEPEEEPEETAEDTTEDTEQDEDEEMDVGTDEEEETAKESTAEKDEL
UniProt P08113, residues 22-802: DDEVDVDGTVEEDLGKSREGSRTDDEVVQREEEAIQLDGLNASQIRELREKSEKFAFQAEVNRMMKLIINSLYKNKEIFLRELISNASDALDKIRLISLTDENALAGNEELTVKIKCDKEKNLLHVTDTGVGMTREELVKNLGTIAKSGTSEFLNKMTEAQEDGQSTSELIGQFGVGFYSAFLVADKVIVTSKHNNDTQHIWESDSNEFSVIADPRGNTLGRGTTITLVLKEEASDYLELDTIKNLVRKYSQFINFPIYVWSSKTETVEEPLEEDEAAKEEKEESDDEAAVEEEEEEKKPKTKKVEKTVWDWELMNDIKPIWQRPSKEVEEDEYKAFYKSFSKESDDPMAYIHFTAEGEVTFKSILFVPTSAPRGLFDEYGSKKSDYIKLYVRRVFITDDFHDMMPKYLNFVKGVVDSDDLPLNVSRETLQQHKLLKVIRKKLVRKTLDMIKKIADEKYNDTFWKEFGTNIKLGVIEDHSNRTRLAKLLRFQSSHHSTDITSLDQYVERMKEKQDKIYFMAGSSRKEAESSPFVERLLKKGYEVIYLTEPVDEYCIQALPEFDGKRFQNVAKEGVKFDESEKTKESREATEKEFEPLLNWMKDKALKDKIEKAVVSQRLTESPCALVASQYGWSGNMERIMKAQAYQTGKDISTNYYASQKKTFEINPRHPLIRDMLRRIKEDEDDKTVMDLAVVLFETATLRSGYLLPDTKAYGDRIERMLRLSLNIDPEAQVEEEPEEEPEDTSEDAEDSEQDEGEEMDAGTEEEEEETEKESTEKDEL

Experiment [1] addresses gp96 endogenous in cultured cell lines (HeLa, HL-60, 293) (Homo sapiens (Human)) (UniProt P14625). Briefly: pull-down of HeLa cell lysate with purified GST-AIMP1 fragments, Western blot with anti-gp96 antibody. On the technique in general: A western blot detects proteins with antibodies after separation by electrophoresis.
Experiment [2] concerns the target gp96 from mouse pancreas protein extract (mouse) (UniProt P08113). Briefly: pull-down from mouse pancreas extract with biotin-conjugated AIMP1, Western blot with anti-gp96 antibody (FIG. 2).
Experiment [3] addresses gp96 endogenous in cultured cell lines (HeLa, HL-60, 293) (Homo sapiens (Human)) (UniProt P14625). Briefly: co-immunoprecipitation with anti-gp96 antibody from lysate of HL-60 cells transfected with an AIMP1-encoding plasmid.
In experiment [4] the target is gp96 from mouse pancreas protein extract (mouse) (UniProt P08113). Briefly: pull-down from mouse pancreas extract with GST-AIMP1, Western blot with anti-gp96 antibody (FIG. 3).

Results are given in words; binding and its absence hold for the method and conditions named. Binding seen in cells or lysates may run through a third protein. Some results given as binding are weak or reduced against the parent protein; the word gives no strength. For some of these results: Sequences can lack the tags named with a protein.

B1: GST-AIMP1-(54-192) (protein, not shown: a dimerising Fc or GST)
chain: KLKKEIEELKQELIQAEIQNGVKQIAFPSGTPLHANSMVSENVIQSTAVTTVSSGTKEQIKGGTGDEKKAKEKIEKKGEKKEKKQQSIAGSADSKPIDVSRLDLRIGCIITARKHPDADSLYVEEVDVGEIAPRTVVSG
Consider B1, for which, in experiment [1], the binding entry is given as “binds”.

B2: biotin-conjugated recombinant AIMP1 protein (protein)
chain: MANNDAVLKRLEQKGAEADQIIEYLKQQVSLLKEKAILQATLREEKKLRVENAKLKKEIEELKQELIQAEIQNGVKQIAFPSGTPLHANSMVSENVIQSTAVTTVSSGTKEQIKGGTGDEKKAKEKIEKKGEKKEKKQQSIAGSADSKPIDVSRLDLRIGCIITARKHPDADSLYVEEVDVGEIAPRTVVSGLVNHVPLEQMQNRMVILLCNLKPAKMRGVLSQAMVMCASSPEKIEILAPPNGSVPGDRITFDAFPGEPDKELNPKKKIWEQIQPDLHTNDECVATYKGVPFEVKGKGVCRAQTMSNSGIK
modifications: conjugated to biotin with sulfo-biotin reagent (sites not given)
Take B2: the binding entry in experiment [2] is “binds”.

B3: AIMP1 expressed in cells transfected with an AIMP1-encoding plasmid (protein)
chain: B2 chain
Regarding B3, the binding result in experiment [3] was “binds”.

B4: GST-AIMP1 (protein, not shown: a dimerising Fc or GST)
chain: B2 chain
Consider B4, for which the binding entry in experiment [4] was “binds”.
